The test can be described thus: qHTS Assay for Lipid Storage Modulators in Drosophila S3 Cells.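 For cell number change: cells counted by Cell Tracker Red CMTPX staining in the red channel.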 The following applies: BODIPY lipid droplet fluorescence, 18-24 h; for cell number change: measured here: cell count max response, cells fed with added oleic acid. In outline:
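Drosophila S3 cells got compounds at several concentrations plus oleic acid (400 uM solution). Laser-scanning cytometry with 488 nm excitation read lipid droplets at 500-530 nm and cells at 575-640 nm. Percent activity was relative to 20 uM Triacsin C.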
(Quantitative high-throughput screening tests each substance at several concentrations.)

[1] abbreviates: measured here: cell number channel AC50, cells fed with added oleic acid.
Where [2] appears, read: measured here: lipid fluorescence (Fed channel) AC50, cells fed with added oleic acid.

The list shows a part of the results. Shown are side measurements of this screen, not its main read-out; they come without a call. Compounds called inactive in the main read-out are mostly missing here. Words in brackets tell the shape of the fitted curve; partial curves, single points and poor fits give uncertain potencies.

Regarding `Clc1ccc(Cl)c(OCCN2CCCC2)c1`, the cell number change was found to be 18.2%. As to `Cc1ccc(NC(=O)c2nnn(-c3ccc4c(c3)OCCO4)c2N)cc1`, the cell number change was -12.8%.

Turning to `COc1ccccc1-c1nnc(SCC(=O)Nc2cc(C)on2)o1`, the cell number change amounted to 46.6%. The AC50 (as a rule, the concentration at which the activity in the assay is half-maximal) under setting [1] was 29.1 µM [rising, single point]. Further, the AC50 under setting [2] was 20.6 µM [rising, single point]. For the molecule `Cc1nonc1CC(=O)N1CCc2c([nH]c3ccccc23)C1c1ccccc1F` (stereo not drawn), the cell number change turned out to be 3.75%. Besides, the AC50 under setting [2] is 0.116 µM [falling, full curve, poor fit]. Regarding `Brc1ccccc1C1N=C(c2ccccc2)NO1` (stereo not drawn), the cell number change came to 0.451%. In addition, under setting [2], the AC50 is 6.51 µM [falling, single point]. For the molecule `OCCC1CN(Cc2ccc3c(c2)CCO3)CCN1C1CCCC1` (stereo not drawn), the cell number change was determined as 31.5%.

Consider `C=CCn1c(SC(C)C(=O)Nc2ccc(F)c(F)c2F)nnc1C1CC1` (stereo not drawn), for which the cell number change was determined as 27%. On to `Cc1ccc(S(=O)(=O)NCC(=O)N(CC(=O)NC2CCCC2)c2ccc3c(c2)OCCO3)cc1`, for which the cell number change was -1.18%. Further, the AC50 under setting [1] was 0.82 µM [rising, single point]. Regarding `O=C(/C=C/c1ccc(O)c(O)c1)c1ccccc1O`, the cell number change was 1.36%. For the same molecule, the AC50 under setting [2] was 29.1 µM [falling, single point].

Take `Cc1c([N+](=O)[O-])nnn1-c1cc(Cl)cc(Cl)c1`: the cell number change came out at 0.797%. In addition, the AC50 under setting [1] was 1.03 µM [falling, full curve]. Moreover, the AC50 under setting [2] was 0.731 µM [falling, partial curve, poor fit]. Turning to `Cc1nc(-c2c(-c3ccc(O)cc3O)noc2C(F)(F)F)cs1`, the cell number change is -8.2%. In addition, the AC50 under setting [2] is 25.9 µM [rising, single point]. Turning to `COc1ccc(-c2[nH]ncc2CN(C)C(C)c2ccon2)cc1F` (stereo not drawn), the cell number change was -14%. Moreover, the AC50 under setting [2] is 29.1 µM [falling, single point]. As to `Cn1c(NC(=O)c2ccc(C(C)(C)C)cc2)cc(=O)n(C)c1=O`, the cell number change was determined as 64.9%. The AC50 under setting [1] is 18.4 µM [rising, single point]. Also, under setting [2], the AC50 was 16.4 µM [rising, partial curve]. On to `CCCCn1c(N)c(N(CC(C)C)C(=O)C2CCN(S(=O)(=O)c3ccc(C)cc3C)CC2)c(=O)[nH]c1=O`, for which the cell number change was -50%. Moreover, the AC50 under setting [1] was 0.92 µM [falling, full curve]. As for `Cn1c(=O)c2cc(S(=O)(=O)NCCC(=O)NC3CCCCCCC3)ccc2n(C)c1=O`, the cell number change was -9.12%.

Regarding `Cc1ccc(C2CC(c3cccc(C)c3)n3ncnc3N2)cc1` (stereo not drawn), the cell number change was 36.6%. Moreover, the AC50 under setting [1] is 32.6 µM [rising, single point]. In addition, under setting [2], the AC50 was 20.6 µM [rising, partial curve]. With `O=C(CN(C(=O)c1csnn1)c1ccccc1F)NCc1ccccc1`, the cell number change worked out at 6.67%. For the molecule `COc1ccc(Cl)cc1NC(=O)CN(C)C(=O)CN1C(=O)NC2(CCCC2)C1=O`, the cell number change was -50%. Also, the AC50 under setting [1] is 29.1 µM [falling, single point]. The AC50 under setting [2] was 29.1 µM [rising, single point]. Turning to `CC(C(=O)O)N1C(=O)CSC1=S` (stereo not drawn), the cell number change was -35.3%. Under setting [1], the concentration at half-maximal activity (AC50) was 1.03 µM [falling, full curve]. In addition, the AC50 under setting [2] was 29.1 µM [falling, single point].

`Cc1ccc(CN2C(=O)C(Cc3ccccc3)Nc3ncnc(N4CCCCC4)c32)cc1` (stereo not drawn): the cell number change turned out to be 4.95%. In addition, the concentration at half-maximal activity (AC50) under setting [1] was 6.51 µM [falling, single point]. On to `COc1cc(Cl)c(C)cc1NC(=O)c1ccc(NS(=O)(=O)c2ccc(F)c(F)c2)cc1`, for which the cell number change was -9.54%. For the same molecule, the AC50 under setting [1] was 0.00461 µM [rising, full curve, poor fit]. Under setting [2], the AC50 is 29.1 µM [falling, single point].

On to `Cc1cc(-c2ccco2)n(CC(=O)NCCN(C)C)n1`, for which the cell number change was -8.41%. Moreover, under setting [2], the AC50 is 7.31 µM [rising, full curve, poor fit]. Consider `CCNC(=O)CN(c1ccccc1)S(=O)(=O)c1ccc(Cl)cc1`, for which, under setting [2], the AC50 was 0.651 µM [falling, single point]. In the case of `Cc1nn(-c2ccccc2)c(N2CCCC2)c1/C=N/NC(=O)c1cccc(S(=O)(=O)Nc2ccc(Cl)cc2)c1`, the cell number change was -22%. For the same molecule, the AC50 under setting [1] is 0.651 µM [rising, single point]. The AC50 under setting [2] is 0.731 µM [rising, single point]. For `CC(C)Cc1cc(CNC(=O)C2CCC(=O)N(Cc3cccc(C(F)(F)F)c3)C2)on1` (stereo not drawn), the cell number change came out at 24.1%. Besides, the AC50 under setting [2] was 29.1 µM [falling, single point].

Regarding `CC(C)(C)C(=O)Nc1cc2nn(-c3ccccc3)nc2cc1Cl`, the cell number change is 163%. Also, under setting [1], the AC50 was 29.1 µM [rising, single point]. For the same molecule, the AC50 under setting [2] was 29.1 µM [rising, single point]. `NC(=O)CSc1nnc(-c2cccc(S(=O)(=O)N3CCOCC3)c2)n1C1CCCCCC1`: the cell number change was 7.97%. The AC50 under setting [2] is 0.00651 µM [falling, full curve, poor fit].

Turning to `CC1=CC(C)(C)N(S(=O)(=O)c2ccc(C)cc2)c2cc(C)ccc21`, the cell number change is -55.7%. The AC50 under setting [1] was 20.6 µM [falling, single point]. Further, under setting [2], the AC50 is 18.4 µM [falling, single point].

Regarding `CN1OC(CC(=O)O)N(c2ccc(Cl)cc2)C1=O` (stereo not drawn), the cell number change was -53.6%. Besides, under setting [1], the AC50 is 3.66 µM [falling, full curve]. The AC50 under setting [2] was 6.51 µM [falling, single point]. Take `Oc1ccc(/C=N/NC(=S)NCC2CCCO2)cc1` (stereo not drawn): the cell number change is -17.3%. Moreover, the AC50 under setting [2] was 11.6 µM [falling, partial curve]. As to `CCOC(=O)CNS(=O)(=O)c1cc(-c2n[nH]c(=O)c3ccccc23)ccc1C`, the cell number change was determined as 9.33%. As to `CCOC(=O)c1cnc2ccc(C(=O)OC)cc2c1NCCc1ccc(OC)c(OC)c1`, the cell number change was -0.114%. Also, under setting [2], the AC50 was 0.116 µM [rising, full curve, poor fit]. Take `CC(=O)N(c1ccc2oc(=O)sc2c1)S(=O)(=O)c1ccc(C(=O)O)cc1`: the cell number change was 6.25%. In addition, under setting [2], the AC50 is 1.16 µM [falling, single point]. Turning to `O=S(=O)(NC(=NCc1ccccc1)c1ccc(F)cc1)c1ccc(Cl)cc1`, the cell number change came to 132%. The AC50 under setting [1] was 23.1 µM [rising, partial curve]. Moreover, the concentration at half-maximal activity (AC50) under setting [2] was 0.58 µM [rising, single point]. For the molecule `COc1ccc(NC(=O)COC(=O)CN2C(=O)NC(C)(C)C2=O)cc1`, the cell number change is -13.1%. The concentration at half-maximal activity (AC50) under setting [2] is 1.64 µM [rising, single point]. For the molecule `Cc1ccc(S(=O)(=O)Nc2ccnc3ccccc23)cc1`, the AC50 is 1.84 µM [rising, single point] under setting [1] and 2.31 µM [rising, single point] under setting [2]. Consider `CS(=O)(=O)NCc1ccc(C(=O)NCc2ccccc2)cc1`, for which the cell number change was -2.38%. Still for that read-out and setting: next, `O=[N+]([O-])c1ccccc1Nc1nc(-c2cccnc2)cs1`: -18.5%. For the molecule `COc1ccc(-c2nc(C#N)c(NCc3ccc(C)cc3)o2)cc1OC`, the cell number change was -29.5%. The AC50 under setting [2] was 0.116 µM [rising, full curve, poor fit]. On to `CCOc1ccc(-c2nnc(N)o2)cc1`, for which the cell number change was -1.43%. Moreover, the AC50 under setting [2] is 6.51 µM [rising, single point].

`COc1ccc(Cl)cc1NC(=O)Cc1c(F)cccc1Cl`: the AC50 under setting [2] is 1.46 µM [rising, partial curve].

In the case of `CCOc1ccccc1NC(=O)CN1c2cccc3cccc(c23)S1(=O)=O`, the cell number change was -10%. Take `CCCCN(C)C(=O)c1cc2c(Cl)nc3ccccc3c2s1`: the cell number change was 47.7%. For the same molecule, the AC50 under setting [1] was 18.4 µM [rising, single point]. As to `Cc1cc(C)c(S(=O)(=O)Nc2ccc(O)c(Sc3ncn[nH]3)c2)cc1C`, the cell number change is -17.6%. In addition, under setting [2], the AC50 was 29.1 µM [falling, single point]. For the molecule `O=C1CNC(=O)N1CC(=O)N1CCCc2ccccc21`, under setting [2], the AC50 was 29.1 µM [falling, single point]. `CC(=O)Oc1ccc(C2(C)CC(C)(C)NC(=S)N2C)c(OC(C)=O)c1` (stereo not drawn): the cell number change was -6.13%. Moreover, the half-maximal activity concentration (AC50) under setting [1] is 0.366 µM [falling, partial curve, poor fit]. With `COc1ccc(NC(=O)c2nc3nc(C)cc(C(F)F)n3n2)cc1OC`, the cell number change amounted to 17.1%. Under setting [2], the AC50 was 0.116 µM [falling, full curve, poor fit]. On to `COc1ccc2cc(-c3[nH]ncc3CN3C[C@@H]4CCC[C@H]3C4)ccc2c1`, for which the cell number change was -2.27%.

Consider `O=C(Nc1ccc(-c2nc3ccccc3o2)cc1)c1ccc2c(c1)OCO2`, for which the cell number change was 7.77%. Further, under setting [1], the AC50 was 0.0651 µM [rising, full curve, poor fit]. For the same molecule, under setting [2], the AC50 was 0.116 µM [rising, full curve, poor fit]. In the case of `COc1ccc(OCCCC(=O)Nc2cccnc2)cc1`, the cell number change came out at 36%. Also, under setting [1], the AC50 is 18.4 µM [rising, single point].

Turning to `CCOc1ccc(/C=N/n2c(COc3ccccc3)n[nH]c2=S)cc1OC`, the cell number change was 47.2%. Moreover, the AC50 under setting [1] is 32.6 µM [rising, single point]. With `CS(=O)(=O)N(CC(=O)Nc1ccccc1C(=O)NCCc1ccccc1)c1ccc2c(c1)OCCO2`, the cell number change was 21.1%. Under setting [2], the AC50 was 0.651 µM [falling, single point]. Regarding `CC1=CC(C)(C)N(C(=O)CCl)c2cc(C)ccc21`, the cell number change was -24.6%. The AC50 under setting [1] is 0.0058 µM [falling, full curve, poor fit]. Further, the AC50 under setting [2] was 0.82 µM [falling, full curve]. With `Cc1ccc2c(c1)-c1c(ssc1=S)C(C)(C)N2C(=O)CN1C(=O)c2ccccc2C1=O`, the cell number change amounted to 19.7%. For the same molecule, the AC50 under setting [2] is 16.4 µM [rising, partial curve]. `COC(=O)CC/C(O)=C1\C(=O)CC(C)(C)CC1=NCc1nc2ccccc2[nH]1`: the cell number change is 29.8%. Besides, under setting [2], the AC50 was 32.6 µM [rising, single point].

As to `CC1=CC(C)(C)N=C(NC#N)N1`, the cell number change is -8.28%. The AC50 under setting [2] was 18.4 µM [falling, partial curve, poor fit]. On to `Cc1cccc2cc(CN(Cc3ccco3)C(=O)c3ccco3)c(=O)[nH]c12`, for which the cell number change is -21.9%. Moreover, the AC50 under setting [1] is 4.11 µM [rising, single point]. For the molecule `Cc1cc(C)c(C#N)c(SCCS(=O)(=O)c2ccc(C(C)(C)C)cc2)n1`, the cell number change turned out to be 17.5%. As to `CCn1cc(Cl)c(C(=O)NNC(=O)CCn2cc([N+](=O)[O-])cn2)n1`, the cell number change is -4.59%. In addition, the AC50 under setting [2] is 0.0058 µM [falling, full curve, poor fit].

For `Cc1cc2oc(=O)cc(-c3cc4ccccc4o3)c2cc1O`, the cell number change was found to be 0.989%.

The record behind these values is PubChem BioAssay AID2685 (National Center for Advancing Translational Sciences (NCATS), 2010).
